Data reported in PMC2948501.
No constants are given. Whether binding was seen depends on the method and setting. Binding seen in cells or lysates may run through a third protein. Tags and fused reporters may be left off the sequences shown.

Assays:
[1] = molecular target: T1, Smac56-V5, transiently expressed from Ub-Smac56-V5 (IRES2.eGFP) (human), Q9NR28; experiment: co-IP; pellets of 911 cells transiently expressing a FLAG-IAP combined with cells transiently or stably expressing Ub-Smac56-V5 (stable lines treated 12 h with 20 µM zIEALal), lysed together (150 mM NaCl, 20 mM Tris-HCl pH 7.5, 0.2% NP-40); immunoprecipitation with polyclonal V5 antibody and protein A/G agarose; western blot for FLAG; settings: remark: other sources report otherwise
T1 chain: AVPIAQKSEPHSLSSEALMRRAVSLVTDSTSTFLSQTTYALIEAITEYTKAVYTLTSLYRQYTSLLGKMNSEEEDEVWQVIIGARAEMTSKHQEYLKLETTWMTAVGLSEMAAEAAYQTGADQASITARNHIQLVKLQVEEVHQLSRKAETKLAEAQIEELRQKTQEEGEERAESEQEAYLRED

[2] = molecular target: T2, Smac56-V5, stably expressed in the cytosol (Ub-Smac56-V5, IRES2.eGFP) (human), Q9NR28; experiment: as above; settings: remark: other sources report otherwise
T2 chain: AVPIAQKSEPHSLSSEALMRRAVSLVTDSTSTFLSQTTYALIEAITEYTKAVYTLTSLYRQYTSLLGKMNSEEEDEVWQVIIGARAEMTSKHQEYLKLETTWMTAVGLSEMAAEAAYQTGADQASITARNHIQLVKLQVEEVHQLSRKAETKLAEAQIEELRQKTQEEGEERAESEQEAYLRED

binding [1]: no binding
binding [2]: no binding
B1: FLAG-tagged Livin alpha (p3XFLAG.CMV10), Q96CA5-1 1-298 (protein)
chain: MGPKDSAKCLHRGPQPSHWAAGDGPTQERCGPRSLGSPVLGLDTCRAWDHVDGQILGQLRPLTEEEEEEGAGATLSRGPAFPGMGSEELRLASFYDWPLTAEVPPELLAAAGFFHTGHQDKVRCFFCYGGLQSWKRGDDPWTEHAKWFPSCQFLLRSKGRDFVHSVQETHSQLLGSWDPWEEPEDAAPVAPSVPASGYPELPTPRREVQSESAQEPGGVSPAEAQRAWWVLEPPGARDVEAQLRRLQEERTCKVCLDRAVSIVFVPCGHLVCAECAPGLQLCPICRAPVRSRVRTFLS
